Our source for the binding values is patent US20150152166A1.

By UniProt entry, the sequences of proteins in these tests, tags left out. Residues count along the entry.
UniProt P06473, residues 32-906: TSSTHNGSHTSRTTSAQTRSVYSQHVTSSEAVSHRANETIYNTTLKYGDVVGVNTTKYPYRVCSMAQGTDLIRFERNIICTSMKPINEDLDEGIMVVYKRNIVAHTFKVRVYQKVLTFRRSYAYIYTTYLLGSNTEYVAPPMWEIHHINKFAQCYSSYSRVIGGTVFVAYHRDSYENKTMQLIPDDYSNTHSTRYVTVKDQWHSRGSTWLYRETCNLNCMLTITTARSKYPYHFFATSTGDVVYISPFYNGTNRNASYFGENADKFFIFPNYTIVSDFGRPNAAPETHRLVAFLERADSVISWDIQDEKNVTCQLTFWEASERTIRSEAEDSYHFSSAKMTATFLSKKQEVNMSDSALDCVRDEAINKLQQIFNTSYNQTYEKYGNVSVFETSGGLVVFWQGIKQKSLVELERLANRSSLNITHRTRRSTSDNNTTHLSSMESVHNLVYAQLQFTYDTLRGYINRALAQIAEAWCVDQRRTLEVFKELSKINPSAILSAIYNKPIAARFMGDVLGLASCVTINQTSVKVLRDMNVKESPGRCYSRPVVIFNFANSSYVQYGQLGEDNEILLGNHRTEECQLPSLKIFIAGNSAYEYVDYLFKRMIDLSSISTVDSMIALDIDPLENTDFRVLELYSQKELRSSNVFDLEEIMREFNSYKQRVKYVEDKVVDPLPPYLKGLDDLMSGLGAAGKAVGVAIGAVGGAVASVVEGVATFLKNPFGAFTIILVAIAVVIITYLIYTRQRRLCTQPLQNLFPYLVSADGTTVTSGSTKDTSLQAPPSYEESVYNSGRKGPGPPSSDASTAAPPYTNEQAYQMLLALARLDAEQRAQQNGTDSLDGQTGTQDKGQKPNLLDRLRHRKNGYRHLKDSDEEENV

Results are given in words; binding and its absence hold for the method and conditions named. Some binding calls cover weakened binding; strength is not graded here.

Test [1] concerns the target T1, CMV gp116 epitope AD2 site peptide … (CMV (human cytomegalovirus)).
T1 sequence (peptide): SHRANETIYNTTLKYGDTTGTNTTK
As to the kind of experiment: ELISA on UV-inactivated CMV virus with soluble AD2 peptide as competitor.

Test [2] deals with HCMV glycoprotein B (gB complex of gp58 and gp116) on CMV virus (human cytomegalovirus) (UniProt P06473). The test can be described thus: ELISA on UV-inactivated CMV virus coated on a plate, HRP anti-human detection.

B1: 4P12 human anti-CMV antibody (antibody, V domains shown)
VH: QVQLVESGGGVIQPGRSLRLSCVASKFIFSNHGIHWVRQAPGKGLEWVAVISKDGTNAHYADSVRGRFSISRDNSKDTVFLEMRSLRPEDTAVYYCAREGRCIEENCYSGQIDYWGQGSLVTVSS
VL: EILLTQSPATLSLSPGERATLSCRASQSVGRYMAWYQQRPGQAPRLLIYDASIRATGIPARFSGSGSGTDFTLTISSLQPEDFAIYYCQQRSSWPPLTFGGGTKVEIKR
Take B1: the binding entry in test [1] and in test [2] was “binds” each time.

B2: 2F10 human anti-CMV antibody (antibody, V domains shown)
VH: QVHLVESGGGVVQPGRALRLSCAATGFTFSNHGIHWVRQAPGKGLEWLAVISSDGDDDRYADSVKGRFSVSRDNSKNTVHLQMNGLRPDDTAIYFCARDGRCGEPKCYSGLPDYWGRGTLVTVSS
VL: EIVLTQSPATLSLSPGDRATLSCRASQSVGGYLAWYQQKPGQAPRLLLYDASNRATGIPARFSGSGSGTDFTLTISSLEPEDFALYYCLQRNTWPPLTFGGGTKVEIKR
For the molecule B2, the binding entry in test [1] and in test [2] was “binds” in each case.
